No constants are given. Whether binding was seen depends on the method and setting. In cells and extracts the contact can be indirect. Some results given as binding are weak or reduced against the parent protein; the word gives no strength. Tags and fused reporters may be left off the sequences shown.

In paper PMC6815129 one finds binding data, which are given here for two molecules.

For assay [1], the target named is T1, HA-RGA, full-length, in vitro translated (Arabidopsis thaliana) (UniProt Q9SLH3).
T1 sequence: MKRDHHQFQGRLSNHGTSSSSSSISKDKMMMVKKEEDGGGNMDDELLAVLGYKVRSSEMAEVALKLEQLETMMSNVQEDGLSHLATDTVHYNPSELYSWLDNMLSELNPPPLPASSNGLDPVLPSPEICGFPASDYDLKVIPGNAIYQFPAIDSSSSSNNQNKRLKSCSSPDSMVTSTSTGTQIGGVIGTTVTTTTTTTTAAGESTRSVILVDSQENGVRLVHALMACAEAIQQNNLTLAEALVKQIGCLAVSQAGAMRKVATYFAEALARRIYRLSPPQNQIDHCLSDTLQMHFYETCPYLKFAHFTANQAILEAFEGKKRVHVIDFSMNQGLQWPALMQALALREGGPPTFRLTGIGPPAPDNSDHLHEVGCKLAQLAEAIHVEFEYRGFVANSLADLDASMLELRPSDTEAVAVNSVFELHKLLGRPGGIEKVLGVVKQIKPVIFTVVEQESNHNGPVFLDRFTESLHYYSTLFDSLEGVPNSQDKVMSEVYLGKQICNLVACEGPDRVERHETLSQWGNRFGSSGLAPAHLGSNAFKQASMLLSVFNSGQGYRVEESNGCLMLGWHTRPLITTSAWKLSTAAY
Nature of the assay: pull-down; in vitro pull-down; Flag-GID1A, HA-RGA and cMyc-GI expressed separately in the TnT system; 7 µL each of GID1A and RGA extract with 0, 1.75, 3.5, 7, 15 or 28 µL of GI extract; immunoprecipitated with anti-Flag; 100 µM GA3 in the IP buffer.

For assay [2], the target named is T2, GFP–RGA expressed from an endogenous promoter fragment in transgenic Arabidopsis seedlings (Arabidopsis thaliana) (UniProt Q9SLH3).
T2 sequence: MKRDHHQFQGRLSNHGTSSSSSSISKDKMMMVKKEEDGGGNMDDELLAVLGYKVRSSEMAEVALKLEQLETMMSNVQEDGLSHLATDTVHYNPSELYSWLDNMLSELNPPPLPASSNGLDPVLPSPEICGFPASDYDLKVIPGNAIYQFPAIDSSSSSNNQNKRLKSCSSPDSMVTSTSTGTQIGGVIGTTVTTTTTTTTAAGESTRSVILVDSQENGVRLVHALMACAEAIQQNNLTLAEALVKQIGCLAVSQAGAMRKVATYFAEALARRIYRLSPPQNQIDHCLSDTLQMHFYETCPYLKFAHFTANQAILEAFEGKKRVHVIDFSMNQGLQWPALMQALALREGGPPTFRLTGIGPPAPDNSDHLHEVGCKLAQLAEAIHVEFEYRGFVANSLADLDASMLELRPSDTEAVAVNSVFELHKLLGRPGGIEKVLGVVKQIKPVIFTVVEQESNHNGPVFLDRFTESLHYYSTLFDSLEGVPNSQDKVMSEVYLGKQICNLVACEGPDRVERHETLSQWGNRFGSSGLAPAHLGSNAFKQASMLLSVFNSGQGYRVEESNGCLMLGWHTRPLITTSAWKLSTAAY
Nature of the assay: co-IP; 10-d-old SD-grown transgenic Arabidopsis seedlings expressing HA-GI and GFP–RGA, harvested at ZT8; modified SII buffer with 50 µM MG-132; immunoprecipitated with anti-GFP Ab290 and protein G Dynabeads, 4 °C.

B1: cMyc-GI, in vitro translated (protein, UniProt Q9SQI2 1-1173)
chain: MASSSSSERWIDGLQFSSLLWPPPRDPQQHKDQVVAYVEYFGQFTSEQFPDDIAELVRHQYPSTEKRLLDDVLAMFVLHHPEHGHAVILPIISCLIDGSLVYSKEAHPFASFISLVCPSSENDYSEQWALACGEILRILTHYNRPIYKTEQQNGDTERNCLSKATTSGSPTSEPKAGSPTQHERKPLRPLSPWISDILLAAPLGIRSDYFRWCSGVMGKYAAGELKPPTIASRGSGKHPQLMPSTPRWAVANGAGVILSVCDDEVARYETATLTAVAVPALLLPPPTTSLDEHLVAGLPALEPYARLFHRYYAIATPSATQRLLLGLLEAPPSWAPDALDAAVQLVELLRAAEDYASGVRLPRNWMHLHFLRAIGIAMSMRAGVAADAAAALLFRILSQPALLFPPLSQVEGVEIQHAPIGGYSSNYRKQIEVPAAEATIEATAQGIASMLCAHGPEVEWRICTIWEAAYGLIPLNSSAVDLPEIIVATPLQPPILSWNLYIPLLKVLEYLPRGSPSEACLMKIFVATVETILSRTFPPESSRELTRKARSSFTTRSATKNLAMSELRAMVHALFLESCAGVELASRLLFVVLTVCVSHEAQSSGSKRPRSEYASTTENIEANQPVSNNQTANRKSRNVKGQGPVAAFDSYVLAAVCALACEVQLYPMISGGGNFSNSAVAGTITKPVKINGSSKEYGAGIDSAISHTRRILAILEALFSLKPSSVGTPWSYSSSEIVAAAMVAAHISELFRRSKALTHALSGLMRCKWDKEIHKRASSLYNLIDVHSKVVASIVDKAEPLEAYLKNTPVQKDSVTCLNWKQENTCASTTCFDTAVTSASRTEMNPRGNHKYARHSDEGSGRPSEKGIKDFLLDASDLANFLTADRLAGFYCGTQKLLRSVLAEKPELSFSVVSLLWHKLIAAPEIQPTAESTSAQQGWRQVVDALCNVVSATPAKAAAAVVLQAERELQPWIAKDDEEGQKMWKINQRIVKVLVELMRNHDRPESLVILASASDLLLRATDGMLVDGEACTLPQLELLEATARAIQPVLAWGPSGLAVVDGLSNLLKCRLPATIRCLSHPSAHVRALSTSVLRDIMNQSSIPIKVTPKLPTTEKNGMNSPSYRFFNAASIDWKADIQNCLNWEAHSLLSTTMPTQFLDTAARELGCTISLSQ
In the case of B1, the binding entry in assay [1] is reported as “binds”.

B2: HA-GI expressed from the 35S promoter in transgenic Arabidopsis seedlings (protein, UniProt Q9SQI2 1-1173)
chain: MASSSSSERWIDGLQFSSLLWPPPRDPQQHKDQVVAYVEYFGQFTSEQFPDDIAELVRHQYPSTEKRLLDDVLAMFVLHHPEHGHAVILPIISCLIDGSLVYSKEAHPFASFISLVCPSSENDYSEQWALACGEILRILTHYNRPIYKTEQQNGDTERNCLSKATTSGSPTSEPKAGSPTQHERKPLRPLSPWISDILLAAPLGIRSDYFRWCSGVMGKYAAGELKPPTIASRGSGKHPQLMPSTPRWAVANGAGVILSVCDDEVARYETATLTAVAVPALLLPPPTTSLDEHLVAGLPALEPYARLFHRYYAIATPSATQRLLLGLLEAPPSWAPDALDAAVQLVELLRAAEDYASGVRLPRNWMHLHFLRAIGIAMSMRAGVAADAAAALLFRILSQPALLFPPLSQVEGVEIQHAPIGGYSSNYRKQIEVPAAEATIEATAQGIASMLCAHGPEVEWRICTIWEAAYGLIPLNSSAVDLPEIIVATPLQPPILSWNLYIPLLKVLEYLPRGSPSEACLMKIFVATVETILSRTFPPESSRELTRKARSSFTTRSATKNLAMSELRAMVHALFLESCAGVELASRLLFVVLTVCVSHEAQSSGSKRPRSEYASTTENIEANQPVSNNQTANRKSRNVKGQGPVAAFDSYVLAAVCALACEVQLYPMISGGGNFSNSAVAGTITKPVKINGSSKEYGAGIDSAISHTRRILAILEALFSLKPSSVGTPWSYSSSEIVAAAMVAAHISELFRRSKALTHALSGLMRCKWDKEIHKRASSLYNLIDVHSKVVASIVDKAEPLEAYLKNTPVQKDSVTCLNWKQENTCASTTCFDTAVTSASRTEMNPRGNHKYARHSDEGSGRPSEKGIKDFLLDASDLANFLTADRLAGFYCGTQKLLRSVLAEKPELSFSVVSLLWHKLIAAPEIQPTAESTSAQQGWRQVVDALCNVVSATPAKAAAAVVLQAERELQPWIAKDDEEGQKMWKINQRIVKVLVELMRNHDRPESLVILASASDLLLRATDGMLVDGEACTLPQLELLEATARAIQPVLAWGPSGLAVVDGLSNLLKCRLPATIRCLSHPSAHVRALSTSVLRDIMNQSSIPIKVTPKLPTTEKNGMNSPSYRFFNAASIDWKADIQNCLNWEAHSLLSTTMPTQFLDTAARELGCTISLSQ
Consider B2, for which the binding entry in assay [2] was “binds”.
